## Screening data, single-dose tests

Chains of the proteins cited; added tags and fusions are not shown. Residues count along the entry.
UniProt P9WPC5, whole entry: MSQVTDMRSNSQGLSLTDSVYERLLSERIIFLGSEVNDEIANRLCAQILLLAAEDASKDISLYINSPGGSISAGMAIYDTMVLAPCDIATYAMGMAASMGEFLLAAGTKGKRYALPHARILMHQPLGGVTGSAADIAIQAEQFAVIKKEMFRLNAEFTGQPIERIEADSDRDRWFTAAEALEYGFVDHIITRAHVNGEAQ
UniProt P9WPC3, whole entry partner: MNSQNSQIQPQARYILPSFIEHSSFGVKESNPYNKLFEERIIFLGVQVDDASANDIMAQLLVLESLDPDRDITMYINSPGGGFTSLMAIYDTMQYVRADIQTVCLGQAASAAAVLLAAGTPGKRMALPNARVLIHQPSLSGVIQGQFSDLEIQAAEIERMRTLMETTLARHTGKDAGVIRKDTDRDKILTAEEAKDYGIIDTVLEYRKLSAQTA
UniProt P9WNZ1, whole entry: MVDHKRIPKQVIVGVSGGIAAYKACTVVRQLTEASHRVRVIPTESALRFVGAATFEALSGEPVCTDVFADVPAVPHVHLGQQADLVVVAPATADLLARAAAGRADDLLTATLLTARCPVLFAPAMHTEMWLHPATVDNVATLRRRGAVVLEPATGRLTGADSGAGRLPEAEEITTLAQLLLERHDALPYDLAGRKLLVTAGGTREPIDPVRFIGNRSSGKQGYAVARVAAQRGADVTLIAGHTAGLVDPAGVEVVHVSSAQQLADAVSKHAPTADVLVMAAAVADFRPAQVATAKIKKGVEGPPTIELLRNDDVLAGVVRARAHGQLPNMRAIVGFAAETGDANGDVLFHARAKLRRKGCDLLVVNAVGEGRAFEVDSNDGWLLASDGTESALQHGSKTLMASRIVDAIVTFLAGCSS
UniProt A4I591, 1-473: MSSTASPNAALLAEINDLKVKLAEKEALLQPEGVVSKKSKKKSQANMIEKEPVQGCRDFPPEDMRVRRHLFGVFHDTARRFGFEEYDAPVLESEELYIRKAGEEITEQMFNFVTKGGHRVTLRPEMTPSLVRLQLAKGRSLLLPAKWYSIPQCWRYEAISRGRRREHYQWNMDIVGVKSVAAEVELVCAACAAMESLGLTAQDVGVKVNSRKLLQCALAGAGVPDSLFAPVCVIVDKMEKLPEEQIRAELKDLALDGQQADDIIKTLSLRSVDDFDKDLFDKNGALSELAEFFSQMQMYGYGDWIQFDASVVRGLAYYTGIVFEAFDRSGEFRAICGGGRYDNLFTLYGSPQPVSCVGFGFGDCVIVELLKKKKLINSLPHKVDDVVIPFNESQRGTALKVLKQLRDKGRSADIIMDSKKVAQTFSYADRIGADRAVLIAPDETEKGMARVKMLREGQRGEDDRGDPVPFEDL

A: 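Protease assay of ClpP1P2, read by the AMC dye that it sets free. Target: ClpP1P2, Mycobacterium tuberculosis (UniProt P9WPC5 and UniProt P9WPC3). Compounds at 50 µM. Direction is inferred from only a few compounds that gave an IC50; most scored high, so higher reads as stronger inhibition. Most other retested compounds had strongly negative values. Of about 69,000 compounds tested this way, about 10 (0.015%) reached 50% or more in at least one test.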
B: 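Enzyme assay of CoaBC with a phosphate dye (Biomol Green) read at 650 nm. Target: Coenzyme A biosynthesis protein CoaBC, Mycobacterium tuberculosis (UniProt P9WNZ1). Tested at 30 µM. Direction is inferred from only a few compounds that gave an IC50; most scored high, so higher reads as stronger inhibition. Most strong results did not repeat in a second test. About 67,000 compounds were tested under these conditions; 0.06% (about 40) showed 50% or more at least once.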
C: 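Cell assay of Leishmania donovani living inside macrophages; the read-out is not stated. Compounds at 30 µM. Higher reads as stronger inhibition (inferred: compounds with an IC50 in retests scored well above the rest). Of about 69,000 compounds tested this way, about 1,000 (1.5%) reached 50% or more in at least one test.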
D: 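Histidine-tRNA ligase, Leishmania infantum (UniProt A4I591). Enzyme assay of histidyl-tRNA synthetase; the read-out is not stated. Concentration: 30 µM. The record gives no direction; compounds that gave an IC50 in retests scored well above the rest, so higher reads as stronger inhibition. The assay is labelled LdHisRS but filed under L. infantum. Size under these conditions: about 69,000 compounds, about 410 of them at 50% or above in at least one test.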

Each number is a percent effect as filed.
The controls that fix the scale are not given in the record; negative values are as filed.
The compounds are a random part of those screened.
A dash means the value is not listed here; it may have been measured.

| structure | A | B | C | D |
|---|---|---|---|---|
| `O=C(O)C(F)(F)F.[H][C@@]12CN(Cc3ccoc3)CCO[C@]1([H])CN(C(=O)Cc1cccs1)C2` | - | - | 3.613 | - |
| `CC(=O)NCCC1CCCCN1S(=O)(=O)c1cccc(Cl)c1` (stereo not drawn) | 28.91 | 2.746 | -5.841 | -7.447 |
| `Cc1cc(NCCN2CCNC2=O)nc2cc3c(cc12)CCC3` | -14.42 | -11.9 | 0.8163 | 11.48 |
| `CCNC(=O)NCc1cnn(-c2ccc(F)cc2F)c1` | -16.4 | 4.781 | -11 | 5.479 |
| `[H][C@@]12CS(=O)(=O)C[C@]1([H])N(Cc1cccnc1)CCN2C(=O)C1CCC1` | - | - | 11.87 | - |
| `Cc1cccc(-c2nc(CN3CCn4c(nnc4C4CC4)C3)no2)c1` | 3.619 | 4.214 | -5.939 | 9.524 |
| `CCC(CO)N(Cc1cccnc1)C(=O)c1ccncc1F` (stereo not drawn) | -9.075 | 2.405 | -25.77 | 3.614 |
| `Cc1cccc(C(=O)N2CC(C(=O)NCC3CC3)C3(CCOCC3)C2)n1` (stereo not drawn) | 0.6682 | 0.2105 | - | 6.195 |
| `CN1CCOC(c2cncc(CCC(N)=O)n2)C1` (stereo not drawn) | -40.48 | 5.701 | 23.01 | 26.76 |
| `CCc1cnc(CN2CCC(N(Cc3noc(CC)n3)C(C)=O)C2)o1` (stereo not drawn) | 0.8625 | 0.7874 | -10.83 | 6.78 |
| `O=c1[nH]c(-c2ccc(F)cc2)nc2c1CCNC2` | 10.48 | 7.613 | 23.84 | 10.75 |
| `Cc1ncc(-c2ccccn2)c(CCNC(=O)CCC2CCCO2)n1` (stereo not drawn) | -27.56 | 2.913 | 12.42 | 5.714 |
| `COc1ncc(C)cc1NC(=O)COCC(F)(F)F` | -2.139 | 3.566 | 1.948 | 77.78 |
| `CCC(CNC(=O)c1ccc(Br)o1)N1CCc2ccccc2C1` (stereo not drawn) | -16.36 | -27.08 | 41.98 | 25 |
| `COCCn1cncc1CN1CCCC(C)(c2ccccc2)C1` (stereo not drawn) | 12.56 | - | -2.364 | 22.86 |
| `CCc1ncc(C(=O)N2CC(N3CCCCC3)C2)cn1` | 9.931 | 5.825 | -25.81 | 16.87 |
| `O=C(NC1CC1)c1nnn(-c2cccc(C(F)(F)F)c2)c1C1CC1` | -22.27 | 2.041 | 15.38 | 25.93 |
| `Cc1cnn(CCNCc2cc(C#N)ccc2F)c1` | -18.17 | 3.113 | 3.343 | -5.505 |
| `Clc1ccc(-n2cc(CNC3CCc4ncnn4C3)cn2)cc1` (stereo not drawn) | -1.613 | 7.572 | 31.2 | 16.22 |
| `[H][C@@]12CCN(C(=O)c3ccc(S(=O)(=O)NCC(F)F)cc3)[C@]1([H])CNC2` | - | - | 3.803 | - |
| `Cc1nc(C(C)C)sc1C(=O)N1CCC(C(N)=O)CC1` | 5.905 | 3.471 | 48.95 | 20.41 |
| `[H][C@]12CCC[C@@]1(COC)CN(C(=O)N1CCCC1)C2` | - | - | 35.14 | - |
| `O=C(O)C(F)(F)F.[H][C@@]12CN(CCOC)C[C@]1([H])[C@@H](OC)CCN2C(=O)Cc1ccccc1` | - | - | 35.25 | - |
| `O=C1NCC2(CCCN(c3ncnc4c3CCC4)CC2)O1` (stereo not drawn) | -4.056 | -2.02 | 10.5 | 22.34 |
| `CN(CCN1CCOCC1)C(=O)CCCc1ccccc1` | -1.677 | -0.4049 | 44.65 | 11.43 |
| `Cc1cccc(CN2C[C@@H](C)[C@@]3(CCN(CC(=O)N(C)C)C3=O)C2)c1.O=C(O)C(F)(F)F` | - | - | 10.4 | - |
| `Cc1cc(C(=O)NC(C)Cc2cccc(Cl)c2)n(C)n1` (stereo not drawn) | -10.93 | 3.145 | 38.43 | 17.7 |
| `CN(C)Cc1noc2c1CN(C(=O)c1ccncc1)CC2.O=C(O)C(F)(F)F.O=C(O)C(F)(F)F` | - | - | 1.97 | - |
| `CS(=O)(=O)N1CCCC(Cc2cnc(Br)cn2)C1` (stereo not drawn) | 12.92 | -17.79 | -26.18 | 0 |
| `Cc1ccc(N2CCCC(NC(=O)Nc3cnn(C)c3)C2=O)cc1` (stereo not drawn) | -1.901 | 1.2 | -22.55 | 2.564 |
| `O=S(=O)(NCC1CCN(c2ccccn2)CC1)c1ccccc1F` | 3.511 | 4.183 | 3.872 | 16.5 |
| `N#Cc1cccnc1OC1CCN(C(=O)NCc2ccccc2)CC1` | -8.711 | 0.4202 | 11.98 | 4.274 |
| `CCC(=O)N1CCN(CCn2cccn2)c2ncccc2C1` | 9.923 | 0.2469 | - | 13.64 |
| `CCc1noc(CN(CC(=O)N2CCCCC2)c2ccc(C)cc2)n1` | 0.1708 | 1.21 | 2.576 | 15.79 |
| `Cn1c(C2CCCCN2C(=O)CN2CCCC2=O)nc2ccccc21` (stereo not drawn) | -2.284 | -1.827 | -17.6 | -5.376 |
| `COc1cccc(CN2CCC3(CC2)CCN(c2ncccn2)C3)c1` | 1.519 | -3.171 | - | 17.54 |
| `COc1ccccc1N1CCN(Cc2nccc(OC)c2OC)CC1=O` | -11.35 | 9.74 | -10.47 | 19.67 |
| `Cn1c(N2CCOCC2)nc2cc(C(=O)N[C@@H]3CC[C@@H](N)C3)ccc21` | -25.38 | -6.378 | 13.39 | 8.642 |

Measurements from “University of Dundee, Small-Polar-MMV Screening Library” (2021), ChEMBL document CHEMBL3988442.